# Laboratory results as given in PubChem BioAssay AID1347426 (Functional Genomics Laboratory (NCATS/FGL), 2020).
# About 1,400 (4.5%) of roughly 31,000 sequences were called active.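 How the source made its calls: active means median seed-adjusted z-score above 1 or below -1; inactive means the rest.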 The list shows a part of the results.
# Experiment: Novel Modifiers of Survival Motor Neuron (SMN) Protein: Gene Identification via Genome-wide siRNA Screen;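 further: luminescence tracks full-length SMN protein made from the SMN2 reporter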
# Settings: HEK293T SMN2-luciferase reporter, siRNA knockdown, 72 h; actives lie on both sides
# How it was run: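 Luciferase signal, proportional to full-length SMN made from an SMN2 cDNA reporter in stable HEK293T cells, was read 72 h after siRNA reverse transfection. Values were expressed as MAD scores after non-targeting-control normalization and log10 conversion; seed analysis flagged off-targets.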
row,Sequence,median seed-adjusted z-score
1,GGACUACAGCGGACAAGGATT against WDR1,inactive: -0.457
2,GAUAGGUUGCUGACUUUUATT against S100A2,inactive: -0.0951
3,GCUGACAUCCGGUUCGUCUTT against TIMP1,inactive: -0.0422
4,CGAAUAGAUUGUUCUAUGATT against NR1D2,inactive: 0.0523
5,CCAAAGCUCGGAUAGGAGATT against GABARAP,inactive: 0.418
6,CUACCACGCAGUCAACCUUTT against LTB4R2,inactive: -0.26
7,GCUGGAAGAUUACACGCCUTT against TAF10,inactive: -0.587
8,GGAUGAAGGCUUCAUCAAATT against KCNA10,inactive: 0.00887
9,CAAACUCAGUCUGAACUUATT against ADORA3,inactive: 0
10,GGAUCCCUAUUUUAGGACATT against MTMR10,inactive: 0.144
11,GGAGAUAUCCUAUAUCAAUTT against OXSM,inactive: 0.22
12,CUAUAAAUGUAAACGAUGUTT against ZNF442,active: 1.06
13,GAAAUCCAGUUUGACGAUATT against EIF1AY,inactive: 0.00168
14,CCAAACGAUUUAUACCUAATT against IPMK,inactive: -0.00138
15,CGAUACUACAUGCUCAACATT against SNX5,inactive: -0.141
16,GCAGGCUUCUGUAACAUUATT against RPP38,inactive: 0.07
17,ACCUACUUCUCCCACCUGGTT against HBQ1,inactive: -0.578
18,CGUUUGACAAGACCACCAATT against VAV2,inactive: 0.975
19,GCUUCAGUGUGAGCAAGGATT against E4F1,inactive: 0.698
20,ACAUCAACUAUUACAGGCATT against ERAF,inactive: 0.0453
21,GCAAAGAUCUAAGCAUGAUTT against SERPINB3,inactive: -0.373
22,CCGUCAAAGUGAUCAACAATT against IKZF3,inactive: 0.0181

row,Sequence,median seed-adjusted z-score
1,GCAUCCUUGUGUACAUGUGTT against USP41,inactive: 0.808
2,GGACCAUCAUGUUCUACAATT against C1R,inactive: -0.541
3,CAACGUAUCAGAUUGAGAATT against ZNF281,active: 1.19
4,GCCCUUCCCUGAUUUUGUUTT against DPYSL2,inactive: -0.569
5,CGUGAUCUCAAGUCCAACATT against MAP3K11,inactive: 0.773
6,GAUGCUAUGGAAUACCAUATT against METTL4,inactive: 0.244
7,GAACUGAGGUUGUGAUGAATT against CPNE4,inactive: -0.0933
8,CCCAAUUUAUGACAACCGUTT against REL,inactive: -0.358
9,GCAUGGUUGAAGAAACGCATT against DNAH8,inactive: 0
10,AGGUUUGGCUCAACUCUGATT against P2RX2,inactive: 0.0454
11,CCUAUGUUCUCUACCAUGATT against AQP10,inactive: -0.09
12,GGCAUAAACUUCGACAAAUTT against DDX4,inactive: -0.136
13,CCAAUGUCCCGGGAGUUUATT against PPM1J,inactive: -0.901
14,GACUAGUUGUGAUUUGCUATT against KCNE4,inactive: 0.0795
15,GCUGACUACUUGAAGUUCATT against DYRK1A,active: -1.3
16,GAUGAAGAGAGAUACGACATT against TNNI3,inactive: 0.516
17,GCCUCUUCUUCGUCUUUGATT against ZDHHC18,inactive: -0.309
18,GAAGCUUGGUGUUGCCUAUTT against ADAM20,inactive: 0.0167
19,GAAGGGAGCAUGUAGCUAATT against 7-Sep,inactive: -0.00715
20,CAACCUUUCUAGAAGUAGATT against SNTG1,inactive: 0.167
21,GGCUACCAAUAAAGAUACATT against LHCGR,inactive: -0.152
22,CCGUUUCCCACUUAACCAATT against FRRS1,inactive: -0.4

row,Sequence,median seed-adjusted z-score
1,GAAUGAUACAUAGAAAAGATT against CAMK2N1,inactive: 0
2,CCUCUAUUCUUGCUCCUGUTT against AOAH,inactive: -0.123
3,UCCUGGAUGUUGAUCCUAATT against PSMC3,inactive: -0.701
4,GGCUUGUCGCGAAUCUUCATT against G6PC3,inactive: -0.13
5,CACUGCAAGUGGGUCAAUATT against ZDHHC19,inactive: 0.0354
6,AACUCAGGCUGUACCUUGATT against MXD4,inactive: 0.688
7,GCAUUUGAGCAUGAAAAUATT against VPS29,inactive: -0.408
8,GCUCUAACUGAACAACUAATT against EHMT2,inactive: 0.295
9,GAUAGACCUAAAUAGCACATT against GPR126,inactive: -0.243
10,CCUUUAGUCAUAGAGCGUATT against ZNF642,inactive: 0.169
11,GAUUCAUGCAUUGAUCACATT against UBE2Z,inactive: 0.0572
12,GUACAAAGCCCAUGGAUUUTT against SPNS3,inactive: -0.00533
13,GCAAUAUAUAUGGAGAGGATT against TRIM48,inactive: 0
14,UUUACAAACUGGUAUGAUATT against AMY1A,inactive: 0.272
15,CGUGUAUUCUUUCACUAAUTT against MFSD1,inactive: -0.0833
16,CAAGUUCACUGUUCGUGAATT against ATP6V1C2,inactive: 0.2
17,GAAAGACGAGCUUUACCUATT against GSK3A,inactive: 0.248
18,GGAACGGCAUAGCCCUAGATT against SIGLEC5,inactive: -0.615
19,GCUUCAUUAUUGGAAAUCUTT against SLC9A7,inactive: 0.349
20,UACAAGUCCUCGCACCUAATT against KLF16,inactive: 0.461
21,CGUUAGCAUCAAGACGAAATT against RFWD2,inactive: 0.662
22,ACGUCUCUCCCAACACCAATT against KCNH2,inactive: 0.1

row,Sequence,median seed-adjusted z-score
1,GGCUCAGUCAUUUGACAAATT against RGS20,inactive: -0.34
2,GAUCAAGUGACAUUGCUAATT against PPARA,inactive: 0.113
3,AGACGAAACAGAUGGUUGATT against SPINK9,inactive: 0.392
4,CAGUGUUAGUGCUAGUGAATT against SLC39A6,inactive: -0.262
5,ACGGCGUGCUGAAAACAGATT against PRDX2,inactive: -0.359
6,GCAAGGACCCUAUCUUUGATT against ILDR1,inactive: -0.318
7,CAUUAAUGUGGGUGAUUUATT against TAF9,inactive: 0.829
8,GGACUUACCUAGAGGAGGATT against ITPKA,inactive: -0.136
9,CCAGGGAUUCUUCUGCUAUTT against LPPR2,inactive: 0.255
10,GAUGGGCAAUUUACAGUCATT against EPHA7,inactive: -0.172
11,GGAACACCUUUAGUCAUGATT against ZNF790,inactive: 0.245
12,GGGUCUACGUGGAGCUCAATT against EPHB3,inactive: -0.407
13,CACUCGAAAUUUUGAAGCATT against CHD4,inactive: 0.625
14,GAAACUUCGUGAAUACUUUTT against CDYL,inactive: 0
15,CGUGUUCCGAGAAAACGAATT against PLEKHM2,inactive: 0.593
16,CAGUCUGUAUUGUAUGGUUTT against KCNA4,inactive: -0.634
17,CUGCAAAUCCUGUAAGUCUTT against FXYD7,inactive: -0.0312
18,GUACAACCACUGCUCCGAATT against SLC22A18,inactive: -0.654
19,GGAGGAAAAGUGCUACGAATT against MEGF8,inactive: 0.0906
20,ACUCGAAUCCAAACCCUCATT against SLC25A18,inactive: -0.0227
21,AGAUGGACAUCUUGCAGUATT against HS1BP3,inactive: 0.418
22,CAAUCCAACUAGUAGUUCATT against SP4,inactive: -0.088

row,Sequence,median seed-adjusted z-score
1,GGGUAUUCUGGGCAUGAAATT against NANS,active: -1.54
2,UGACAGCAGUGAGUGCAAATT against ESM1,inactive: 0.141
3,GGUGUUGUCCGUCUGCUCATT against THA1P,inactive: -0.509
4,GGCUCUGCGAACAUCAAUATT against CLTC,inactive: -0.0662
5,GAAUUAGCAGUGUACAUGATT against SLC30A10,inactive: 0.523
6,GGCACUAAGUUUGACCGGATT against AQR,active: -1.56
7,CCCUAUAUUUCAAACAUCUTT against PLOD1,inactive: 0.481
8,GCAUGACUGUACCCAUGAATT against SLC3A1,inactive: -0.33
9,CCUCGCAACUGGAAAGACATT against ATP2C1,inactive: -0.112
10,CCAUGUACCUUGAAGUGCATT against NCAM1,inactive: 0
11,AGAAACCACUCUUUAAGAATT against ABCF1,inactive: -0.221
12,CCCUCACACUAAUAGAACATT against SLAMF7,inactive: -0.478
13,CCGGGUUAAUUACCACCUUTT against MTHFR,inactive: 0
14,GAAAGCAACUGACACUCUUTT against ATP2C2,inactive: -0.302
15,CUAGGAAGAUAAUACCAGATT against BTRC,inactive: -0.0819
16,AGUGGAUUAUGGAUCUCCATT against TXNL4B,inactive: 0.762
17,GGAUUACGCCCUCUUCACATT against NPHS1,inactive: -0.0505
18,GAAUAGGCACUGUUACUUUTT against HNRNPM,inactive: 0.499
19,GGAAAAUCAAUAUAUCACUTT against ADH6,inactive: -0.132

# Exported as tab-separated lines: entries from further up
row	Sequence	median seed-adjusted z-score
12	GUACAAAGCCCAUGGAUUUTT against SPNS3	inactive: -0.00533
6	GCAAGGACCCUAUCUUUGATT against ILDR1	inactive: -0.318
13	CACUCGAAAUUUUGAAGCATT against CHD4	inactive: 0.625
22	CAAUCCAACUAGUAGUUCATT against SP4	inactive: -0.088
14	GAAAGCAACUGACACUCUUTT against ATP2C2	inactive: -0.302
